# According to PubChem BioAssay AID1794845 (National Center for Advancing Translational Sciences (NCATS), 2023):
# By UniProt entry, the sequences of proteins in these tests, tags left out. Where a name states a change or a piece, a line headed by the entry shows the natural chain unless it says otherwise.
# UniProt C7C422: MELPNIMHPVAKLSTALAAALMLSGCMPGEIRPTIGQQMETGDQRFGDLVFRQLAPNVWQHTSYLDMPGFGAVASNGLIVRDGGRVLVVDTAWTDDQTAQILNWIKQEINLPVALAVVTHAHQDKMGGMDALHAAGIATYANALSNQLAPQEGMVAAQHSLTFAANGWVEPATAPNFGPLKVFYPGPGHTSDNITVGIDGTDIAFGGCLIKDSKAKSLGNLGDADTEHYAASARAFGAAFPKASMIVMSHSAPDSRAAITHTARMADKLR
# The campaign covered roughly 6,900 compounds. Fewer than 10 were called active. The call rests on the fitted dose curve; in most records, active means well fitted curve in the direction sought with a large enough effect; inconclusive means small, poorly fitted or top-dose-only effect, or another doubt; inactive means no such curve, though single readings can be large or run the other way. The list shows a part of the results.
# Molecular target: Metallo-beta-lactamase type 2 (Klebsiella pneumoniae) (UniProt C7C422)
# Test: qHTS to identify inhibitors of the New Delhi Metallo-beta-lactamase (NDM): primary screen against the NCATS Gemini Collection; further: % of control where 0% means no effect
# Settings: NDM-1 enzyme, meropenem hydrolysis, absorbance 300 nm; at 38.4 µM (top of the series) unless noted
# Procedure, shortened: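 Meropenem hydrolysis (50 uM final) by 2 nM NDM-1 read as 300 nm absorbance after 30 min, following >30 min compound–enzyme preincubation in HEPES pH 7.0 with 1 uM ZnSO4 and 0.01% Tween20.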
row,SMILES,activity % (negative = inhibition)
1,O=C1NCC2(CCCN(C(=O)CCc3nc4ccccc4[nH]c3=O)C2)O1 (centres undefined),inactive: 6.27%
2,O=c1ncn(CC2CC2)c2ccc(N3CCC(c4ccccc4)CC3)nc12,inactive: 24.7% [at 57.5 µM]
3,Cc1cn2nc(C(=O)Nc3ccc4c(c3)OCCO4)cc2c(N(C)Cc2ccccc2)n1,inactive: 25.9%
4,CNC(=O)c1cn2c(n1)CN(C(=O)OCc1ccccc1)CC2,inactive: 2.52%
5,Cc1cc(Cl)cc(Cl)c1CNCC1(O)CCCNC1 (centres undefined),inactive: -2.6%
6,COc1ccccc1CN[C@H]1CC(C)(C)[C@@H]2C[C@@](C)(O)CC[C@]12CCC(=O)NCCN1CCOCC1,inactive: -9.76%
7,CCOc1cccc(CN2C[C@@H](Oc3ccccc3)C[C@@H]2C(=O)NC)c1,inactive: -0.657%
8,O=C(CN1CCC2(CC1)NC(=O)CC2C(=O)O)NCc1ccccn1 (centres undefined),inactive: 14.2%
9,Cc1ccc([C@H]2C[C@@H](O)[C@@H](O)[C@@H]2NS(C)(=O)=O)cc1,inactive: 0.842% [at 77.1 µM]
10,O=C(NC1CCCN(c2cc(N3CCCC3)ncn2)C1)c1ccco1 (centres undefined),inactive: 16.8%
11,CC(C)N1CC(C(=O)N2CCC(c3ccccc3)CC2)NC1=O (centres undefined),inactive: 8.63% [at 57.5 µM]
12,O=C(NCc1cccnc1)C1CCC(=O)N1C1CCN(C(=O)Cc2ccccc2F)CC1 (centres undefined),inactive: 0.0397%
13,N#Cc1ccc(S(=O)(=O)N2CCc3c(nc(-c4ccc(F)cc4)[nH]c3=O)C2)cc1,inactive: 0.248%
14,O=C1NCCC[C@@H]1NC(=O)[C@H]1CN(C(=O)C2CCNCC2)CCN1C(=O)c1cccs1,inactive: 10.3%
15,O=C(COc1ccc(F)cc1)N1CCOc2ccc(N3CCOCC3)cc2C1,inactive: 7.34%
16,COc1cccc(CCC(=O)NCc2nnc3c(-c4nc(C)no4)cccn23)c1,inactive: 20.2%
17,CN(Cc1ccccc1)Cc1cn([C@H]2CO[C@H]3[C@@H]2OC[C@@H]3NC(=O)CCC(=O)O)nn1,inactive: 9.24% [at 57.5 µM]
18,COc1ccc(-c2nc(C)nc3c2CCN([S+](=O)([O-])c2cccs2)CC3)cc1,inactive: -0.0245%
19,Cc1ccc(O[C@H]2CCOC[C@H]2NC(=O)CCc2c(C)noc2C)cn1,inactive: -0.427%
20,COC(=O)CCC(=O)N1CCOC(CCCC(C)C)C1 (centres undefined),inactive: -5.66%
21,Cc1nnc2ccc(NC3CCCC3)nn12,inactive: 1.92%
22,COc1cccc(C(=O)N2CCC(N3C(=O)c4c(c(C)nn4-c4ccccc4)C3C3CC3)C2)c1 (centres undefined),inactive: 21.6%
23,C[C@@H]1CN(C2(C(=O)NCc3n[nH]c4c3CCC4)Cc3ccccc3C2)C[C@H](C)O1,inactive: 0.0426%
24,Cc1cccc(NC(=O)N2CCCCC2c2nc(-c3cnccn3)n[nH]2)c1 (centres undefined),inactive: 23.1%
25,CC1=NOC2(CCN(Cc3ccc(Cl)cc3)CC2)C1,inactive: 5.13% [at 57.5 µM]
26,CC(C)CCN1CCNC(=O)C1CC(=O)NCc1ccc(O)cc1O (centres undefined),inactive: 8.76%
27,O=C(Nc1ccccc1)N1CCC(OCc2noc(C3CCCO3)n2)CC1 (centres undefined),inactive: -2.88%

# Quoted at random: two records from the list, in no set order.
row,SMILES,activity % (negative = inhibition)
8,O=C(CN1CCC2(CC1)NC(=O)CC2C(=O)O)NCc1ccccn1 (centres undefined),inactive: 14.2%
24,Cc1cccc(NC(=O)N2CCCCC2c2nc(-c3cnccn3)n[nH]2)c1 (centres undefined),inactive: 23.1%

# Further structures follow.

row,SMILES,activity % (negative = inhibition)
1,CN1C[C@H]2CN(C(=O)c3ccc(C(F)(F)F)cc3)CCN2C1=O,inactive: 0.274% [at 57.5 µM]
2,Cc1cccc(C(=O)N2CCN(c3cc(C(F)(F)F)nc(C)n3)CC2)c1,inactive: 13.7%
3,CCCS(=O)(=O)N1CCCC1C(=O)Nc1ccccc1-c1ccc(OC)cc1 (centres undefined),inactive: 0.323%
4,O=C(CN1CCCC1)N[C@H]1CC[C@H](Nc2nccc(-c3cccnc3)n2)C1,inactive: 6.07%
5,CN1CCCC(c2nc(CCOCC3CCCC3)no2)C1 (centres undefined),inactive: 11.1%
6,Cc1cnc(C2CCOCC2)n1CC1CCN(C2CCCCCC2)CC1,inactive: -4.81%
7,CCn1ccc(C(=O)N2CCC(N3C[C@H](O)C[C@H]3C(=O)NCc3cccnc3)CC2)n1,inactive: 1.97%
8,O=C(Cc1ccccc1)NCC1CN(Cc2ccncc2Cl)CC12CN(c1ccccc1)C2 (centres undefined),inactive: -0.935%
9,CCCCCC(=O)Nc1ccc([C@H]2OCC(=O)N(Cc3nccn3C)[C@@H]2CO)cc1,inactive: -0.217% [at 57.5 µM]
10,O=C(CC1CCOCC1)N1CCN(Cc2ccc(F)cc2F)CC1,inactive: -7.49%
11,Cc1ncc2n1C(=O)N(C1CCN(CC3CC3)CC1)C2,inactive: 1.75% [at 57.5 µM]
12,Cc1cc(C)n(CC(=O)N2CCCC2c2nc(CCOCC3CCOCC3)no2)n1 (centres undefined),inactive: -0.315%
13,COc1ccccc1N1CCN([C@@H]2[C@H](O)[C@H](CO)O[C@@H]2CNC(=O)c2ccccc2)CC1,inactive: 2.69%
14,COc1cccc(-c2nc3ccc(-c4ccc5c(c4)OCO5)cc3o2)c1OC,inactive: 15.7%
15,CCOC(=O)c1ccc(CNC(=O)c2cn(CCCc3ccccc3)nn2)o1,inactive: 2.67%
16,COc1ccc(C(=O)N2CCC3(CC2)CCC(O)(CN(C)C)CC3)cc1OC,inactive: -9.83%
17,NC(=O)[C@@H](Cc1c[nH]c2ccccc12)NC(=O)[C@@H]1CN(S(=O)(=O)c2ccccc2)CCN1C(=O)C1CCNCC1,inactive: -3.16%
18,Cc1cn2nc(C(=O)Nc3cccc(F)c3C)cc2c(N2CCCC2)n1,inactive: 11.7%
19,O=C(CC1CCCCC1)N1CCCC1c1nncn1Cc1ccncc1 (centres undefined),inactive: -5.35%
20,COCCN1C(=O)C(CC(=O)O)=C2CCCCC21 (centres undefined),inactive: 2.87%
21,CN(Cc1ccccc1C(F)(F)F)S(C)(=O)=O,inactive: 4.87% [at 57.5 µM]
22,CC(=O)N1CCC(C2CCN(C(C)=O)C2)CC1 (centres undefined),inactive: -0.839%
23,CCOc1ccccc1CN1CCC(Cc2nc(-c3cccnc3)n[nH]2)C1 (centres undefined),inactive: -2.11%
24,CCn1ccc(C(=O)N2[C@@H]3CC[C@H]2CC(NC(=O)c2ccc(F)cc2)C3)n1 (some centres undefined),inactive: 34%
25,CC(=O)NC1(C)CN(Cc2ccc(-c3cccc(F)c3)s2)C1,inactive: 29.8% [at 57.5 µM]
26,CC(C)NC(=O)N[C@H]1C[C@H]2C(=O)NC[C@@H](CCC(=O)N3CCN(c4ccccn4)CC3)N2C1,inactive: 0.201%
27,Cc1c(Cl)cccc1NC(=O)N1CCCC1c1nncn1-c1ccccc1 (centres undefined),inactive: 12.2%

# Grouped by structure, the compounds so far with an aryl methoxy group.
row,SMILES,activity % (negative = inhibition)
6,COc1ccccc1CN[C@H]1CC(C)(C)[C@@H]2C[C@@](C)(O)CC[C@]12CCC(=O)NCCN1CCOCC1,inactive: -9.76%
16,COc1cccc(CCC(=O)NCc2nnc3c(-c4nc(C)no4)cccn23)c1,inactive: 20.2%
18,COc1ccc(-c2nc(C)nc3c2CCN([S+](=O)([O-])c2cccs2)CC3)cc1,inactive: -0.0245%
22,COc1cccc(C(=O)N2CCC(N3C(=O)c4c(c(C)nn4-c4ccccc4)C3C3CC3)C2)c1 (centres undefined),inactive: 21.6%
3,CCCS(=O)(=O)N1CCCC1C(=O)Nc1ccccc1-c1ccc(OC)cc1 (centres undefined),inactive: 0.323%
13,COc1ccccc1N1CCN([C@@H]2[C@H](O)[C@H](CO)O[C@@H]2CNC(=O)c2ccccc2)CC1,inactive: 2.69%
14,COc1cccc(-c2nc3ccc(-c4ccc5c(c4)OCO5)cc3o2)c1OC,inactive: 15.7%
16,COc1ccc(C(=O)N2CCC3(CC2)CCC(O)(CN(C)C)CC3)cc1OC,inactive: -9.83%
